This note sets out measurements from doi:10.1101/2025.10.29.685374.

Sequences of proteins named here, by UniProt entry; tags and fusion partners are left off.
UniProt P63167: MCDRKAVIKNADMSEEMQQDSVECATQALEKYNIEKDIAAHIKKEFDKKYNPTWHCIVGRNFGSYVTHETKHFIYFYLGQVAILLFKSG
UniProt P33176: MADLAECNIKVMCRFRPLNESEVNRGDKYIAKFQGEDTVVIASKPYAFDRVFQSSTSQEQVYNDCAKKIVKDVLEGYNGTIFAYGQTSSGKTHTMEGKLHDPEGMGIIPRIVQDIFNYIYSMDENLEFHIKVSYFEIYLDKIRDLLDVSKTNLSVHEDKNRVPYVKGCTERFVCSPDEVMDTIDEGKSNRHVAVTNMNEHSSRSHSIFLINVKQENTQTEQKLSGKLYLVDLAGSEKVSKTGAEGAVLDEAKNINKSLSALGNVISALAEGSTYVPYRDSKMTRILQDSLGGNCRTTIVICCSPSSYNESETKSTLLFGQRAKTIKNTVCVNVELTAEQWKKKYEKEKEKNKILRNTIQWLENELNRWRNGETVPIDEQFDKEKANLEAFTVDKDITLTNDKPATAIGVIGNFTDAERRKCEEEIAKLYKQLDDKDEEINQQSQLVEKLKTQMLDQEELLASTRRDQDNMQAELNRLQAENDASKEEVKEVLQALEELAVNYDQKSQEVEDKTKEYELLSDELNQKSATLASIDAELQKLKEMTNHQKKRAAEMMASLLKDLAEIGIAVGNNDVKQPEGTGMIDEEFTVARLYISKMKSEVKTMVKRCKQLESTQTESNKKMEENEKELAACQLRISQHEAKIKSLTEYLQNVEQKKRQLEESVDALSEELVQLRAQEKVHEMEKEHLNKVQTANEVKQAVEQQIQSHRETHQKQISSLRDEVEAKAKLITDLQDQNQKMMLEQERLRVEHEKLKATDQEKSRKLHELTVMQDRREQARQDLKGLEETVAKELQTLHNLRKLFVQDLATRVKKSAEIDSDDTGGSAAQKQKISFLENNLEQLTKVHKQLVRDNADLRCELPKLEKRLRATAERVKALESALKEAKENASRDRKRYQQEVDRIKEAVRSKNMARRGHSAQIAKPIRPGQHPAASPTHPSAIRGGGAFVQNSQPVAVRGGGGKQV

These are yes or no findings as the source states them, for the method shown. Binding seen in cells or lysates may run through a third protein. Some entries that bind do so weakly or less than the wild type. Tags and fused reporters may be left off the sequences shown.

The target in test [1] is T1, GFP-tagged syntabulin (GFP-SYBU) (UniProt Q9NX95).
T1 sequence: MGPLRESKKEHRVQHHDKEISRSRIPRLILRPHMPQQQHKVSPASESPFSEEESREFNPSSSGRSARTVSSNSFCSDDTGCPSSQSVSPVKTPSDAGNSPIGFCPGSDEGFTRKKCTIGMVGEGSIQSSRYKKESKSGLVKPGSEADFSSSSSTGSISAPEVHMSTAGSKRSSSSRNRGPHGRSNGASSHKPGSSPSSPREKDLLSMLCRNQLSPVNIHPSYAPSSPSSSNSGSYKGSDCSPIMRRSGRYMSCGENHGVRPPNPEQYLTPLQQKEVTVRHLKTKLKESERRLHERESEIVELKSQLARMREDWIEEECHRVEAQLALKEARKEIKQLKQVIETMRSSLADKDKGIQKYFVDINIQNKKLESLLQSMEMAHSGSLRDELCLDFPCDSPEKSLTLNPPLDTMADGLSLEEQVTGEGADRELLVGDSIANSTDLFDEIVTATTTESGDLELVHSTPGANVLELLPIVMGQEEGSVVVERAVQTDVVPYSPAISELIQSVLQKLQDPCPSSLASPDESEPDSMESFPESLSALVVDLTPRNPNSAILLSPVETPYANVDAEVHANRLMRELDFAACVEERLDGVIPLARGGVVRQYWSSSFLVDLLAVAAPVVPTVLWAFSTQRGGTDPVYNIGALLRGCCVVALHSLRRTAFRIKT
In words: co-IP.

The target of test [2] is T1, GFP-tagged syntabulin (GFP-SYBU). The experiment in a line: proximity ligation.

“dynein light chain 1 DYNLL1 (LC8) (from UniProt P63167 1-89)”: the binding entry in test [1] and in test [2] was “binds” each time. Turning to “kinesin-1 motor protein KIF5B (from UniProt P33176 1-963)”, the binding entry in test [1] is reported as “no binding”.
